According to publication doi:10.1101/2023.03.08.531807:
No constants are given. Whether binding was seen depends on the method and setting. In cells and extracts the contact can be indirect. Some entries that bind do so weakly or less than the wild type.

By UniProt entry, the sequences of proteins in these tests, tags left out. Residues count along the entry.
UniProt Q8IWT6: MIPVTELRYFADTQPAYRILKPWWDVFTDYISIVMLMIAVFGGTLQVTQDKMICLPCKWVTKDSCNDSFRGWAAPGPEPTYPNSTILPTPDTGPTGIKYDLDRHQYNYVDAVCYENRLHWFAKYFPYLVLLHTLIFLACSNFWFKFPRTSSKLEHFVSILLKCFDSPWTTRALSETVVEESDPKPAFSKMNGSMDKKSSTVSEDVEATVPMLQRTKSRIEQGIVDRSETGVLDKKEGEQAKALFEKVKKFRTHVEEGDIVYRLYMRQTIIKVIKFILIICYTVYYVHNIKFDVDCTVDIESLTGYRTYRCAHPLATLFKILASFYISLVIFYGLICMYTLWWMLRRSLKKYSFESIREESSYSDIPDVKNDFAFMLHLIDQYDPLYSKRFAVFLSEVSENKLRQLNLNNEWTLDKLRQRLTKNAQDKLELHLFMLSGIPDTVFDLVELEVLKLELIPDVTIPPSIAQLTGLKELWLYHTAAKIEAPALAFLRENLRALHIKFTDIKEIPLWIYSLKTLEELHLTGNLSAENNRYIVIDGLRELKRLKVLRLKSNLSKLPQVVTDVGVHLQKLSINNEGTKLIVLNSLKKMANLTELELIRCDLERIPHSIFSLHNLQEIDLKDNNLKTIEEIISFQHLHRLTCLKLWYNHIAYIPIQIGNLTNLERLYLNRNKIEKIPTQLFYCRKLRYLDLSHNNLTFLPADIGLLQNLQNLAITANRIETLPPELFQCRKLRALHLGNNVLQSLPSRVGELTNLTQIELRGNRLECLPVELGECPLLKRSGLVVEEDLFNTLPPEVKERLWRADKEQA
UniProt Q80WG5: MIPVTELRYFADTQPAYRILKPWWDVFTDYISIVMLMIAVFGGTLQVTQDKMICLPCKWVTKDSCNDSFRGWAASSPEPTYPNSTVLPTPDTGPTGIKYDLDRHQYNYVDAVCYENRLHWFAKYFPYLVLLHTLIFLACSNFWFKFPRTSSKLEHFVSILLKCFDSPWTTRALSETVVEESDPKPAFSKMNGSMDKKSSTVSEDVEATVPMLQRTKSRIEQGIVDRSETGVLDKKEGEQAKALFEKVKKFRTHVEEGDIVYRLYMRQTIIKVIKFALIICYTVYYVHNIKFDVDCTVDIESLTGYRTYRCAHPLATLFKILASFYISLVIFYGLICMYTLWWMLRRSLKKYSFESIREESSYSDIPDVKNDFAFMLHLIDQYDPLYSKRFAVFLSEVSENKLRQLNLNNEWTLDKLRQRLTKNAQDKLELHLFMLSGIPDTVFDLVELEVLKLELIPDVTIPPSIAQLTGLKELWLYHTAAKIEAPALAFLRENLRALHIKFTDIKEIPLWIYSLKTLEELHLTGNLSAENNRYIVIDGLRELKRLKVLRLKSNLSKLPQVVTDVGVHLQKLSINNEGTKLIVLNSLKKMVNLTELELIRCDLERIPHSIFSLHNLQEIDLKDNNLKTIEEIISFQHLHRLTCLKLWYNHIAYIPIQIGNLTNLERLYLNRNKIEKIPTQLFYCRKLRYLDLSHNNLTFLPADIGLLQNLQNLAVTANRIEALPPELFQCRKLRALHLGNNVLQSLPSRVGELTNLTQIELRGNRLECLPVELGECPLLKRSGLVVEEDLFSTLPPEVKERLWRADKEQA
MPRIP-DDK fragment aa 213-545 (Q6WCQ1, residues 213-545): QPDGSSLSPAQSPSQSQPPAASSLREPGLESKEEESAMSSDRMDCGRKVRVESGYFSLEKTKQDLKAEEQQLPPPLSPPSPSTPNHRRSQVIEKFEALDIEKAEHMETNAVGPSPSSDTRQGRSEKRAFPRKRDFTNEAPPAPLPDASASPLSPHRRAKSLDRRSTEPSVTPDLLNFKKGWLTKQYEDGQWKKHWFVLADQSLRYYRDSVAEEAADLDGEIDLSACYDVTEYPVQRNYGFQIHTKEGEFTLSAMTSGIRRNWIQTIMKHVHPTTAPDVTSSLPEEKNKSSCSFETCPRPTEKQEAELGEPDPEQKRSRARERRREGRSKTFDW
MPRIP-DDK fragment aa 389-545 (second PH domain) (Q6WCQ1, residues 389-545): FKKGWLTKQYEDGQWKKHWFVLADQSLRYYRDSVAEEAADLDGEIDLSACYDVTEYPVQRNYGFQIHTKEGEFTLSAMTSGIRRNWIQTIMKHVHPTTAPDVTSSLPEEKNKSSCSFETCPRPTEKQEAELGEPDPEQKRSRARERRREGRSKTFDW
UniProt P97434: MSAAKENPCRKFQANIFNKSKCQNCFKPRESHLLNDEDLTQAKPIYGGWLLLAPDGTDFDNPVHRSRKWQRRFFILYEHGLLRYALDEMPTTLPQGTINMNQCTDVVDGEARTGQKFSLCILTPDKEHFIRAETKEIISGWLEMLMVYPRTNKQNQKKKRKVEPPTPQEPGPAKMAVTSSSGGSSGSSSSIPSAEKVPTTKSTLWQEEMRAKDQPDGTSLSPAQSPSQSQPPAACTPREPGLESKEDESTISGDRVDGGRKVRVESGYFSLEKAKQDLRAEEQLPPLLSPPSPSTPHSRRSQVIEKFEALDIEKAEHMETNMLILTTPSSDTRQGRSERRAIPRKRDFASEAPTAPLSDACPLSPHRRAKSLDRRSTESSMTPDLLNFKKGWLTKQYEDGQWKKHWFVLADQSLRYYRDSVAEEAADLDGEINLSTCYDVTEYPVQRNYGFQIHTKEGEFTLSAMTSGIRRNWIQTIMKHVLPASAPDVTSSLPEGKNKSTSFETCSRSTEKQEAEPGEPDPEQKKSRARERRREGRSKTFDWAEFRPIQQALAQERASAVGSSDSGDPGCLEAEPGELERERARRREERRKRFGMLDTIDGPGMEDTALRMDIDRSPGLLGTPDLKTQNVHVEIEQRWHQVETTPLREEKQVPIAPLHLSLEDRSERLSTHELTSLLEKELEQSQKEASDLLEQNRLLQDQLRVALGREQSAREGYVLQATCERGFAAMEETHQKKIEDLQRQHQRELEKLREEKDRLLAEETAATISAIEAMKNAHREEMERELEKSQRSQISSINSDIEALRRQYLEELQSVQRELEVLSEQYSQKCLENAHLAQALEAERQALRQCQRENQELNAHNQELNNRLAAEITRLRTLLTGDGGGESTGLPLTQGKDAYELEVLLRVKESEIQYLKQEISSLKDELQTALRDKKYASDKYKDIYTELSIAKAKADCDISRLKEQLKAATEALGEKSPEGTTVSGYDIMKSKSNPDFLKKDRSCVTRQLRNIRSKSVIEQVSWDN

Tests used:
[1] = target: full length myc-tagged LRRC8A (UniProt Q8IWT6); assay: co-IP
[2] = target: LRRC8A (endogenous, vascular smooth muscle cells) (mouse (endogenous in VSMCs)) (UniProt Q80WG5); assay: co-IP
[3] = target: LRRC8A (endogenous, vascular smooth muscle cells) (mouse (endogenous in VSMCs)) (UniProt Q80WG5); assay: proximity ligation

Substance | binding [1] | binding [2] | binding [3]
MPRIP-DDK fragment aa 213-545 (from UniProt Q6WCQ1-2 213-545) (domain or fragment) | binds | – | –
Myosin Phosphatase Rho-Interacting Protein (MPRIP), endogenous in vascular smooth muscle cells (from UniProt P97434 1-1024) | – | binds | binds
MPRIP-DDK fragment aa 389-545 (second PH domain) (from UniProt Q6WCQ1-2 389-545) (domain or fragment) | binds | – | –
